Values quoted from earlier work in patent US9315483B2, “Synthesis of deuterated catechols and benzo[D][1,3]dioxoles and derivatives thereof” (Concert Pharmaceuticals, Inc., priority 2007, dated 2016).
For at least one compound, name, drawing or mass did not settle the structure.

System: estrogen receptor
Conditions: cited from earlier work

CC/C(=C(\c1ccc(O)cc1)c1ccc(OCCNC)cc1)c1ccccc1 [Endoxifen, endoxifen]
activity higher than TAM: 30-100 fold
